Data reported in publication doi:10.1101/2022.09.13.507836.

How the values were obtained:
[1] = target: T1, 20S Proteasome Alpha Subunit G1 (PAG1) (Arabidopsis) (UniProt O23715); assay: two-hybrid
T1 sequence: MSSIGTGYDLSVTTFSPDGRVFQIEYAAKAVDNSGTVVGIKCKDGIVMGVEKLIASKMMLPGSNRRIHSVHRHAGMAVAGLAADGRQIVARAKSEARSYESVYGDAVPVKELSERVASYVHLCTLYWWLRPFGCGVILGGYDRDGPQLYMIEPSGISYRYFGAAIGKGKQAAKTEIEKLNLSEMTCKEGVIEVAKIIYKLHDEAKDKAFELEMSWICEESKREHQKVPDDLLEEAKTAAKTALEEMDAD

[2] = target: T2, SE C-terminal region (469-720 aa) (Arabidopsis) (UniProt Q9ZVD0); assay: two-hybrid
T2 sequence: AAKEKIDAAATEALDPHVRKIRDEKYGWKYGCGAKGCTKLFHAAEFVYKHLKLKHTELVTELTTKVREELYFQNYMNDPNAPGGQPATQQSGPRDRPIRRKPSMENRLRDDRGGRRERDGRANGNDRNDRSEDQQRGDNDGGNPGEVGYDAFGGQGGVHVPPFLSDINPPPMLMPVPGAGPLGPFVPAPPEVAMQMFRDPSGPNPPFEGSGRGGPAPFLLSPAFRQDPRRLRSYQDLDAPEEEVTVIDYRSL

[3] = target: T3, BD-SE (SERRATE, full length) (Arabidopsis) (UniProt Q9ZVD0); assay: two-hybrid
T3 sequence: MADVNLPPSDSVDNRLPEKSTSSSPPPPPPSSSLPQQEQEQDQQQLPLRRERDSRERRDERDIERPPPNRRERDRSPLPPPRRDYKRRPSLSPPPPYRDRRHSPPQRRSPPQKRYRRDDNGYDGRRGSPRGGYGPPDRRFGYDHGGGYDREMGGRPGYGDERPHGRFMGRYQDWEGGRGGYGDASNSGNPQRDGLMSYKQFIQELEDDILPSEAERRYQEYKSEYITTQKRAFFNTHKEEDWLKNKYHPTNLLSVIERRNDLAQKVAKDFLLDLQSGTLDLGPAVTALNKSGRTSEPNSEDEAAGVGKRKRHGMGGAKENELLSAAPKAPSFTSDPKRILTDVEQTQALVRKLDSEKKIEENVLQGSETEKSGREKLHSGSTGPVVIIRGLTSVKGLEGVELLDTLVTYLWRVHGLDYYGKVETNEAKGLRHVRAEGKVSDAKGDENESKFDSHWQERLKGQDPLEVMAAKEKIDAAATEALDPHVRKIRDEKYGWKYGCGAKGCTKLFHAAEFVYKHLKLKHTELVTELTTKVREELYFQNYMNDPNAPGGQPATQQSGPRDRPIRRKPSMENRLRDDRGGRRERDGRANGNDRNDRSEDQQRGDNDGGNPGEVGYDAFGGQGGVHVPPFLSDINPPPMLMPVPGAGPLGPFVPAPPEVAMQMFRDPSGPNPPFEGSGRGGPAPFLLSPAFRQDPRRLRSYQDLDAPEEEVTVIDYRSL

cYFP-SE (Arabidopsis) = target: T4, cYFP-SE (Arabidopsis) (UniProt Q9ZVD0); assay: split reporter
T4 sequence: T3 sequence

| binding [1] | binding [2] | binding [3] | binding (cYFP-SE (Arabidopsis)) | Substance |
| --- | --- | --- | --- | --- |
| – | – | binds | – | SAID1 middle part (377-580aa) (Arabidopsis) (domain or fragment) |
| – | – | – | binds | nYFP-SAID1 (Arabidopsis) |
| – | – | – | binds | nYFP-SAID2 (Arabidopsis) |

More lines, now with the values behind:

| Substance | binding [1] | binding [2] | binding [3] | binding (cYFP-SE (Arabidopsis)) |
| --- | --- | --- | --- | --- |
| AD-SAID1 (full length) (Arabidopsis) | no binding | binds | binds | – |
| AD-SAID2 (Arabidopsis) | no binding | – | binds | – |
| pre-mRNA processing 4 kinase A (PRP4KA) (Arabidopsis) (enzyme) | – | – | binds | – |

These are yes or no findings as the source states them, for the method shown. For part of these data: Binding can be weak; no strength is given. For part of these data: Sequences can lack the tags named with a protein. For part of these data: In cells and extracts the contact can be indirect.
